Source: paper PMC12440877
Results are given in words; binding and its absence hold for the method and conditions named. Binding seen in cells or lysates may run through a third protein. These calls come from enrichment with a bait or labelling near it, and not all partners need be listed.

Target: T1, Interferon-induced transmembrane protein 1 (IFITM1) (mouse (endogenous in NIH-3T3)) (UniProt Q9D103)
T1 sequence: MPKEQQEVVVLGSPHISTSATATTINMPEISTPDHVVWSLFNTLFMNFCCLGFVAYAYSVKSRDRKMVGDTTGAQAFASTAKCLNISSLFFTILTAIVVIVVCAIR
Experiment: affinity purification with mass spectrometry; NIH-3T3 lysate; anti-IFITM1 antibody or IgG on magnetic beads; eluate run on SDS-PAGE, then mass spectrometry; IgG group against IFITM1 group

binding: binds
B1: CBR4 (protein, UniProt Q91VT4 1-236)
chain: MDKVCAVFGGSRGIGRAVAQLMAQKGYRLAIVSRNLEVAKVTAGELGGNHLAFRCDVAKEQDVQSTFQEMEKHLGPVNFLVNAAGINRDSLLVRTKTEDMISQLHTNLLGSMLTCKAAMKTMIQQGGSIVNVGSIIGLKGNVGQSAYSATKGGLVGFSRSLAKEVARKKIRVNVVAPGFIRTDMTRHLKEEHFKKNIPLGRFGETLEVAHAVVFLLESPYITGHVLIVDGGLQLTV
